# From PubChem BioAssay AID1347423 (Functional Genomics Laboratory (NCATS/FGL), 2020)
# The campaign covered roughly 52,000 sequences. About 210 (0.4%) were called active.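 How the source made its calls: active means gene whose silencing raises cell survival under the drug, median off-target-corrected z-score across its silencing RNAs 2 or more; inactive means the rest.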 The list shows a part of the results.
# Assay: Resistance to Poly (ADP-Ribose) Polymerase inhibitor: Gene Identification via Genome-wide siRNA Screen
# Conditions: mouse BRCA2 R2336H ES cells, olaparib, CellTiter-Glo viability; stronger effect = higher value
# Procedure, shortened: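 Genome-wide siRNA screen (3 siRNAs/gene, 20 nM) in mouse ES cells carrying hypomorphic BRCA2 R2336H; olaparib 500 nM added 48 h post-transfection, CellTiter-Glo viability 72 h later. Normalized to plate-median negative control; MAD z-scores, gene median, seed-adjusted.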
row,Sequence,z-score
1,GGAUCAAAACUUAAAUGGUTT against Lancl1,inactive: 1.26
2,GCUGCUAAAGAGCAUUUUGTT against Fkbp11,inactive: -0.975
3,GGUUAAAUAAUCCACAAGCTT against 4930563D23Rik,inactive: 1.59
4,GGACAUUUCUAUGUCUUUGTT against Cpt2,inactive: -0.58
5,CCUAAUUGUCCUUCACAUGTT against Pfkfb2,inactive: 0.124
6,GCGAUUUCACACCAUCACATT against Rab10,inactive: -0.183
7,GGAAACCAUCGAGCAAGAGTT against 1700129I15Rik,inactive: -1.56
8,GGAAUCAUUGACGUAAUCATT against Chi3l3,inactive: 0.209
9,GGCUGUGGAAGUGCAGAACTT against Dnmt3a,inactive: -0.383
10,GGCCAAGAGCAACUCACUGTT against BC048671,inactive: -0.991
11,GCAUUAUUCUGAGGACACATT against FHOS2,inactive: 1.26
12,GGAAGAAGUUGGAGAUGUUTT against Dhrs8,inactive: -2.07
13,GGACCAAGCAAGAAGGUGGTT against Tatdn2,inactive: -1.43
14,GGAGGAGCUCCUAAAGUGUTT against Bcat1,inactive: 0.987
15,GGGUUGUGCCUCACAGAUUTT against Olfr976,inactive: 0.28
16,GGACAUCCUCAAGCUUCAUTT against Cib2,inactive: -0.811
17,GGAGAAGUCUUCAUUUGAATT against Tubgcp2,inactive: -1.47
18,GGCUCAGCAUGUGUCAUACTT against 3010027G13Rik,inactive: -0.23
19,GCUAAUGCUAGGUGUGAAATT against Caskin2,inactive: -1.27
20,GGAAGAAAUUUUUCGUUGATT against Gldc,inactive: -0.0281
21,GCUAAUAACUGUUCACAUATT against Baiap1,inactive: 1.11
22,GGCAGAAUCUAAAGACCAATT against Aldh8a1,inactive: 0.723
23,GGCACUCAACACCUGUAUATT against Olfr640,inactive: -0.209
24,GGAUGUGGCAUCCUACCACTT against Bfsp2,inactive: 2.28
25,GGUAAACAUGAUGUCCCUCTT against A630038E17Rik,inactive: -0.0528
26,GGAACGAGAAUCGGAGAUGTT against Mapk8ip3,inactive: 0.251

# Shown with bars between the fields: part of the list above.
row | Sequence | z-score
19 | GCUAAUGCUAGGUGUGAAATT against Caskin2 | inactive: -1.27
23 | GGCACUCAACACCUGUAUATT against Olfr640 | inactive: -0.209

# Later entries

row,Sequence,z-score
1,GCUCAUGAUUACUGCCAAUTT against Olfr1305,inactive: 1.83
2,GGCUACGCAGCGAAGAAAATT against Rpl32,inactive: -3.38
3,GCUUUAUGAGUUCACGGAGTT against Prkab2,inactive: 0.97
4,GGUGGGCACUCUGGUUUUUTT against Eif4e,inactive: -2.62
5,GGGCUGUUUGUAGCAGAUUTT against Olfr1279,inactive: -2.42
6,CGAUAAAACAGAACAUAGUTT against Stxbp4,inactive: 1.79
7,GGCUCUUUUGAUCACCAAUTT against Abcc1,inactive: -0.125
8,CCUAGGAAUCCUUGAUGAUTT against Bmp8b,inactive: -0.925
9,GGUCUAUGCGAUGCUAUACTT against A830091I15Rik,inactive: -1.05
10,GGGAGUUCUCUAAAUGCUUTT against Olfr482,inactive: -0.421
11,CCGGGUCCGAGUAGAUUUUTT against 2610014H22Rik,inactive: 0.103
12,GCCACUCAUAUUGAUCCAUTT against Prss34,inactive: 0.104
13,GGCUGUGAAUGGAUGGAGGTT against Carkl,inactive: -1.05
14,CCAAAAUCAUAGAUGGAGUTT against Postn,inactive: -0.00793
15,GGUCAUUGCCACACAGAUCTT against 1810008K03Rik,inactive: 1.57
16,CGACAAGGUAUGGAAAGCUTT against MGI:2153084,inactive: -1.96
17,GCGGGAGAGCUAUGAAACATT against Mrps21,inactive: -1.56
18,GCAGUCGAAGCACUAAAAATT against 1110034A24Rik,inactive: 3.14
19,CCUGCAAGACAUUUCUCAGTT against Gm1968,inactive: 1.62
20,GGCUUUCAGUUAUUUGACATT against BC021921,inactive: -0.0774
21,GCAAAACUGGCUGUCAGUATT against Rnf24,inactive: 0.036
22,GCGGCUAUGUUACAGGAGCTT against Skb1,inactive: 1.84
23,GCGCAAAUACAUUGAGGAUTT against Slc17a7,inactive: -0.487
24,CGUGGACUAAAAGUUUUCATT against Mmp12,inactive: 1.76
25,GGUACAUUUUAUACUGGAGTT against Zfp277,inactive: 0.624
26,GGGACACGAACUCUCCAAUTT against Ywhab,inactive: 0.0859

# Single values from the results shown:
# GGUCAUUGCCACACAGAUCTT against 1810008K03Rik – z-score: inactive: 1.57
# CGUGGACUAAAAGUUUUCATT against Mmp12 – z-score: inactive: 1.76
